# Test results from the supplement of paper PMC8728848.
# This is one part of the list.
# Legend:
# Test in all cases: glycan array binding signal (z-score within array); higher = stronger binding
# Details in all cases: glycan notation: IUPAC condensed, linker removed
# [1] = biological target: Man(a1-2)Man(a1-3)[Man(a1-2)Man(a1-6)]Man
# Outline: (§1)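 Arrays were curated from the Consortium for Functional Glycomics database, 3228 in total, and kept only where the protein sequence was available. Binding is expressed as a within-array Z-score. This score was averaged across arrays of the same protein sequence at different concentrations or buffers and across linkers, and negative values can be read as non-binding.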
# [2] = biological target: Man(a1-2)Man(a1-3)[Man(a1-2)Man(a1-6)]Man(a1-6)[Man(a1-2)Man(a1-2)Man(a1-3)]Man
# Outline: as §1
# [3] = biological target: Man(a1-2)Man(a1-3)[Man(a1-2)Man(a1-6)]Man(a1-6)[Man(a1-2)Man(a1-2)Man(a1-3)]Man(b1-4)GlcNAc(b1-4)GlcNAc
# Outline: as §1
# [4] = biological target: Man(a1-2)Man(a1-3)[Man(a1-6)]Man(a1-6)[Man(a1-2)Man(a1-3)]Man(b1-4)GlcNAc(b1-4)GlcNAc
# Outline: as §1
# [5] = biological target: Man(a1-2)Man(a1-6)[Man(a1-3)]Man(a1-6)[Man(a1-2)Man(a1-2)Man(a1-3)]Man
# Outline: as §1
# [6] = biological target: Man(a1-2)Man(a1-6)[Man(a1-3)]Man(a1-6)[Man(a1-2)Man(a1-2)Man(a1-3)]Man(b1-4)GlcNAc(b1-4)GlcNAc
# Outline: as §1
# Man(a1-3)[Man(a1-6)]Man = biological target: Man(a1-3)[Man(a1-6)]Man
# Outline: as §1
# [7] = biological target: Man(a1-3)[Man(a1-6)]Man(a1-6)[Man(a1-2)Man(a1-3)]Man(b1-4)GlcNAc(b1-4)GlcNAc
# Outline: as §1
# [8] = biological target: Man(a1-3)[Man(a1-6)]Man(a1-6)[Man(a1-3)]Man
# Outline: as §1
# [9] = biological target: Man(a1-3)[Man(a1-6)]Man(a1-6)[Man(a1-3)]Man(b1-4)GlcNAc(b1-4)GlcNAc
# Outline: as §1
# [10] = biological target: Man(a1-3)[Man(a1-6)]Man(b1-4)GlcNAc(b1-4)GlcNAc
# Outline: as §1
# [11] = biological target: Man(a1-3)[Man(a1-6)]Man(b1-4)GlcNAc(b1-4)[Fuc(a1-6)]GlcNAc
# Outline: as §1
# Man(a1-6)Man = biological target: Man(a1-6)Man
# Outline: as §1
# Man(b1-4)GlcNAc = biological target: Man(b1-4)GlcNAc
# Outline: as §1
# MurNAc(b1-4)GlcNAc = biological target: MurNAc(b1-4)GlcNAc
# Outline: as §1
# Neu5Ac(a2-3)Gal = biological target: Neu5Ac(a2-3)Gal
# Outline: as §1
# [12] = biological target: Neu5Ac(a2-3)Gal(b1-3)GalNAc
# Outline: as §1
# [13] = biological target: Neu5Ac(a2-3)Gal(b1-3)GalNAc(b1-3)Gal(a1-4)Gal(b1-4)Glc
# Outline: as §1
# [14] = biological target: Neu5Ac(a2-3)Gal(b1-3)GalNAc(b1-4)[Neu5Ac(a2-3)]Gal(b1-4)Glc
# Outline: as §1
# [15] = biological target: Neu5Ac(a2-3)Gal(b1-3)GalNAc(b1-4)[Neu5Ac(a2-8)Neu5Ac(a2-3)]Gal(b1-4)Glc
# Outline: as §1
# [16] = biological target: Neu5Ac(a2-3)Gal(b1-3)GalNAc6S
# Outline: as §1
# [17] = biological target: Neu5Ac(a2-3)Gal(b1-3)GlcNAc
# Outline: as §1
# [18] = biological target: Neu5Ac(a2-3)Gal(b1-3)GlcNAc(b1-2)Man
# Outline: as §1
# [19] = biological target: Neu5Ac(a2-3)Gal(b1-3)GlcNAc(b1-2)Man(a1-3)[GlcNAc(b1-4)][Neu5Ac(a2-3)Gal(b1-3)GlcNAc(b1-2)Man(a1-6)]Man(b1-4)GlcNAc(b1-4)GlcNAc
# Outline: as §1
# [20] = biological target: Neu5Ac(a2-3)Gal(b1-3)GlcNAc(b1-2)Man(a1-3)[Neu5Ac(a2-3)Gal(b1-3)GlcNAc(b1-2)Man(a1-6)]Man(b1-4)GlcNAc(b1-4)GlcNAc
# Outline: as §1
# [21] = biological target: Neu5Ac(a2-3)Gal(b1-3)GlcNAc(b1-3)Gal(b1-3)GlcNAc
# Outline: as §1
# [22] = biological target: Neu5Ac(a2-3)Gal(b1-3)GlcNAc(b1-3)Gal(b1-4)GlcNAc
# Outline: as §1
# [23] = biological target: Neu5Ac(a2-3)Gal(b1-3)GlcNAc(b1-3)GalNAc
# Outline: as §1
# [24] = biological target: Neu5Ac(a2-3)Gal(b1-3)GlcNAc(b1-4)Gal(b1-4)Glc
# Outline: as §1
# [25] = biological target: Neu5Ac(a2-3)Gal(b1-3)GlcNAc(b1-6)GalNAc
# Outline: as §1
# [26] = biological target: Neu5Ac(a2-3)Gal(b1-3)GlcNAc6S
# Outline: as §1
# [27] = biological target: Neu5Ac(a2-3)Gal(b1-3)[Fuc(a1-4)]GlcNAc
# Outline: as §1
# [28] = biological target: Neu5Ac(a2-3)Gal(b1-3)[Fuc(a1-4)]GlcNAc(b1-3)Gal(b1-3)[Fuc(a1-4)]GlcNAc
# Outline: as §1
# [29] = biological target: Neu5Ac(a2-3)Gal(b1-3)[Fuc(a1-4)]GlcNAc(b1-3)Gal(b1-4)[Fuc(a1-3)]GlcNAc
# Outline: as §1
# [30] = biological target: Neu5Ac(a2-3)Gal(b1-3)[GlcNAc(b1-6)]GalNAc
# Outline: as §1
# [31] = biological target: Neu5Ac(a2-3)Gal(b1-3)[Neu5Ac(a2-6)]GalNAc
# Outline: as §1
# [32] = biological target: Neu5Ac(a2-3)Gal(b1-3)[Neu5Ac(a2-6)]GlcNAc(b1-3)[Fuc(a1-3)[Gal(b1-4)]GlcNAc(b1-6)]Gal(b1-4)Glc
# Outline: as §1
binder,measurement,setting,value
"AT5G24760(45) (Arabidopsis thaliana), Q8LEB2 (protein) MSASSSSFEQPQVITCNAAVAWRAGEPLVMEEVEVSPPQPLEIRIKVVCTSLCRSDLSAWESQSLLPRIFGHEAAGIVESIGEGVTEFEKGDHVLAVFTGECGSCRHCISGKSNMCQVLGMERKGLMHSDQKTRFSIKGKPVYHYCAVSSFSEYTVVHSGCAVKVDPLAPLHKICLLSCGVAAGLGAAWNVADVQKGSSVVIFGLGTVGLSVAQGAKLRGAAQILGVDINPAKAEQAKTFGVTDFINSNDLSEPIPQVIKRMTGGGADFSFECVGDTGIATTALQSCSDGWGMTVTLGVPKAKPEVSAHYGLFLSGKSLKGTLFGGWKPKSDLPSLIDKYMNKEIMIDEFITHNLSFDEINKAFVLMREGKCLRCVLHMPK",glycan array binding signal (z-score),[1],-1.05
same,glycan array binding signal (z-score),[2],-0.963
same,glycan array binding signal (z-score),[3],0.124
same,glycan array binding signal (z-score),[4],-0.404
same,glycan array binding signal (z-score),[5],-0.772
same,glycan array binding signal (z-score),[6],2.16
same,glycan array binding signal (z-score),Man(a1-3)[Man(a1-6)]Man,-0.147
same,glycan array binding signal (z-score),[7],-0.032
same,glycan array binding signal (z-score),[8],0.506
same,glycan array binding signal (z-score),[9],2.45
same,glycan array binding signal (z-score),[10],-0.591
same,glycan array binding signal (z-score),[11],-0.202
same,glycan array binding signal (z-score),Man(a1-6)Man,0.972
same,glycan array binding signal (z-score),Man(b1-4)GlcNAc,-0.703
same,glycan array binding signal (z-score),MurNAc(b1-4)GlcNAc,-0.721
same,glycan array binding signal (z-score),Neu5Ac(a2-3)Gal,-0.061
same,glycan array binding signal (z-score),[12],-0.172
same,glycan array binding signal (z-score),[13],-0.984
same,glycan array binding signal (z-score),[14],-0.768
same,glycan array binding signal (z-score),[15],-0.322
same,glycan array binding signal (z-score),[16],-0.551
same,glycan array binding signal (z-score),[17],-0.399
same,glycan array binding signal (z-score),[18],-0.186
same,glycan array binding signal (z-score),[19],2.23
same,glycan array binding signal (z-score),[20],-0.816
same,glycan array binding signal (z-score),[21],0.213
same,glycan array binding signal (z-score),[22],-0.618
same,glycan array binding signal (z-score),[23],-0.553
same,glycan array binding signal (z-score),[24],-1.04
same,glycan array binding signal (z-score),[25],-0.602
same,glycan array binding signal (z-score),[26],-0.604
same,glycan array binding signal (z-score),[27],-0.34
same,glycan array binding signal (z-score),[28],-0.571
same,glycan array binding signal (z-score),[29],-0.859
same,glycan array binding signal (z-score),[30],-0.437
same,glycan array binding signal (z-score),[31],-1.03
same,glycan array binding signal (z-score),[32],-0.703

# Looked up one by one from the entries so far (2):
binder,measurement,setting,value
"AT5G24760(45) (Arabidopsis thaliana), Q8LEB2 (protein) MSASSSSFEQPQVITCNAAVAWRAGEPLVMEEVEVSPPQPLEIRIKVVCTSLCRSDLSAWESQSLLPRIFGHEAAGIVESIGEGVTEFEKGDHVLAVFTGECGSCRHCISGKSNMCQVLGMERKGLMHSDQKTRFSIKGKPVYHYCAVSSFSEYTVVHSGCAVKVDPLAPLHKICLLSCGVAAGLGAAWNVADVQKGSSVVIFGLGTVGLSVAQGAKLRGAAQILGVDINPAKAEQAKTFGVTDFINSNDLSEPIPQVIKRMTGGGADFSFECVGDTGIATTALQSCSDGWGMTVTLGVPKAKPEVSAHYGLFLSGKSLKGTLFGGWKPKSDLPSLIDKYMNKEIMIDEFITHNLSFDEINKAFVLMREGKCLRCVLHMPK",glycan array binding signal (z-score),[23],-0.553
same,glycan array binding signal (z-score),[7],-0.032
